Assay results reported in patent US20240400701A1 (LANOVA MEDICINES DEVELOPMENT, published 2024).
Positions count from the first letter of the chain named. These are yes or no findings as the source states them, for the method shown. Some entries that bind do so weakly or less than the wild type.

B1: 94C4C3 H1L1 hIgG1 (antibody, V domains shown)
VH: QLQLQESGPGLVKPSETLSLTCTVSGYSITSDYAWNWIRQPPGKGLEWIGYISYSGSISYNPSLKSRVTISVDTSKNQFSLKLSSVTAADTAVYYCARSRYSWFDYWGQGTLVTVSS
VL: EIVLTQSPGTLSLSPGERATLSCSASESVDTYGNSFMHWYQQKPGQAPRLLIYRASSLESGIPDRFSGSGSGTDFTLTISRLEPEDFAVYYCQQSNEDPYTFGGGTKVEIK
notes: Humanized, human IgG1; also called 94C4C3 H1L1 hlgG1
B2: 108F3D1E9 H1L1 hIgG1 (antibody, V domains shown)
VH: B1 VH with Y33F, Y54F, I58T, D105A
VL: DIQMTQSPSSLSASVGDRVTITCRASESVDTYGNSFMHWYQQKPGKAPKLLIYRASNLESGVPSRFSGSGSGTDFTLTISSLQPEDFATYYCQQSNEDPYTFGGGTKVEIK
notes: Humanized, PTM de-risked VH, human IgG1; also called 108F3D1E9 H1L1 hlgG1
B3: 31D9B3 VH1.3-VL2.2 hIgG1 (antibody, V domains shown)
VH: QVQLVQSGAEVKKPGASVKVSCKASGYTFTDYWVSWVRQAPGQGLEWMGEIYPKNQVSNFNEKFKGRVTMTTDTSTSTAYMELRSLRSDDTAVYYCARQRDYWGQGTLVTVSS
VL: DVVMTQSPLSLPVTLGQPASISCRSSQSLEYGDRYTYLEWYLQRPGQSPRLLIYGVSNRFSGVPDRFSGSGSGTDFTLKISRVEAEDVGVYYCFQATHDPNTFGQGTKLEIK
notes: Humanized, PTM de-risked, human IgG1; also called 31D9B3 VH1.3-VL2.2 hlgG1

target: cyno AMHR2 (cyno); assay: FACS on CHO-K1 cells over-expressing cyno AMHR2

binding, binds:
B1
B2
B3
